Drawing on PubChem BioAssay AID2685 (National Center for Advancing Translational Sciences (NCATS), 2010), this text covers cell number change and AC50 for 60 compounds.

Structures are written as SMILES. This is one part of the list. Shown are side measurements of this screen, not its main read-out; they come without a call. Compounds called inactive in the main read-out are mostly missing here. Words in brackets tell the shape of the fitted curve; partial curves, single points and poor fits give uncertain potencies.

This experiment can be described thus: qHTS Assay for Lipid Storage Modulators in Drosophila S3 Cells.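 As to cell number change: cells counted by Cell Tracker Red CMTPX staining in the red channel.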 Particulars: BODIPY lipid droplet fluorescence, 18-24 h; for cell number change: measured here: cell count max response, cells fed with added oleic acid. The gist of the method: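 Drosophila S3 cells got compounds at several concentrations plus oleic acid (400 uM solution). Laser-scanning cytometry with 488 nm excitation read lipid droplets at 500-530 nm and cells at 575-640 nm. Percent activity was relative to 20 uM Triacsin C.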

Setting [1] is: measured here: lipid fluorescence (Fed channel) AC50, cells fed with added oleic acid.
[2] abbreviates: measured here: cell number channel AC50, cells fed with added oleic acid.

Consider `COc1ccc(-n2nc(C(=O)NCC(=O)N3CCCC3)c3ccccc3c2=O)cc1Cl`, for which the cell number change turned out to be 24.8%. Besides, the AC50 under setting [1] is 29.1 µM [rising, single point].

Take `CC(=O)Oc1ccc(C(=O)[C@H]2[C@H]3C(=O)N(c4ccc(C)cc4)C(=O)[C@H]3[C@@H]3C=CC=NN32)cc1`: the cell number change is -13%. Besides, the AC50 under setting [2] was 2.06 µM [rising, partial curve].

With `O=C(c1ccccc1Cl)N1CCN(Cc2ccc3c(c2)OCO3)CC1`, the cell number change is -13.9%. The AC50 under setting [1] was 16.4 µM [rising, single point]. Regarding `C/C(=N\Nc1ccc([N+](=O)[O-])cc1[N+](=O)[O-])c1ccc(-n2nncc2C(C)(C)C)cc1`, the cell number change was -25.8%. For the same compound, the AC50 under setting [1] is 18.4 µM [falling, single point]. Consider `COc1cccc(CNC(=O)[C@H](C)NC(=O)C2CCN(S(=O)(=O)c3ccccc3)CC2)c1`, for which the cell number change was 29.6%. For the same compound, the AC50 under setting [1] is 6.51 µM [falling, single point]. Turning to `CCN1C(=O)CCCc2ccccc21`, the cell number change came to 10.9%. Further, the AC50 under setting [2] is 2.06 µM [falling, partial curve]. The AC50 under setting [1] is 1.46 µM [falling, partial curve]. For the compound `O=C(COc1ccc([N+](=O)[O-])cc1Cl)N1CCOCC1`, the cell number change stood at 8.11%. Besides, the AC50 under setting [2] was 0.231 µM [rising, full curve, poor fit]. For the same compound, the AC50 under setting [1] was 3.66 µM [rising, single point].

In the case of `COc1ccc(/C=C2\N=C(c3ccccc3Cl)NC2=O)cc1`, the cell number change is 14.5%.

Take `COc1ccccc1NC(=O)CN1CCN(C2c3ccccc3-c3ccccc32)CC1`: the AC50 under setting [1] was 18.4 µM [falling, single point]. As for `Cc1cccc(N2CCN(Cc3ccoc3)CC2)c1C`, the cell number change was -10.3%. As for `CCOC(=O)[C@@H]1[C@H]2COc3ccc(Br)cc3[C@@H]2N2C(=O)N(c3ccc(C(F)(F)F)cc3)C(=O)[C@@]12C`, the cell number change turned out to be 6.59%. On to `COc1ccccc1CNC(=O)CN1C(=O)NC2(CCCC2)C1=O`, for which the cell number change was -12%. Moreover, the AC50 under setting [1] was 14.6 µM [falling, partial curve]. Turning to `COc1ccc(NC(=O)COC(=O)CCCc2c[nH]c3ccccc23)cc1OC`, the cell number change was found to be 59.3%. As to `O=C(CN1CCc2cc3c(cc2C1)OCCCO3)Nc1ccccc1`, the cell number change was -33.9%. For the same compound, under setting [2], the AC50 is 29.1 µM [falling, single point]. Under setting [1], the AC50 was 20.6 µM [falling, partial curve]. For `CC(=O)c1ccc(N2CCN(C(=O)c3ccc(NC4=NC5CS(=O)(=O)CC5S4)cc3)CC2)cc1` (configuration not stated), the cell number change was found to be 2.88%. For the same compound, the AC50 under setting [1] was 0.00517 µM [rising, full curve, poor fit]. In the case of `O=C(N[C@@H](Cc1ccccc1)C(=O)CCl)OCc1ccccc1`, the cell number change was -55.1%. Further, the AC50 under setting [2] is 29.1 µM [falling, single point]. Further, the AC50 under setting [1] is 29.1 µM [falling, single point].

In the case of `COC(=O)C1=CN(CC2CCCO2)C=C(C(=O)OC)C1c1cc(OC)c(OC)c(OC)c1` (configuration not stated), the cell number change was -18.7%. In the case of `CCOC(=O)C1CCCN(C(=O)c2cn(CC)c3ccc(S(=O)(=O)N4CCCC4)cc3c2=O)C1` (configuration not stated), the cell number change was -26.8%. Under setting [1], the AC50 is 0.326 µM [falling, single point].

`O=C(NCc1ccc(F)cc1)C1CCN(S(=O)(=O)N2CCCCC2)CC1`: the cell number change is -15.1%. For the same compound, the AC50 under setting [1] is 29.1 µM [falling, single point].

In the case of `Cc1ccc(S(=O)(=O)CCSc2nc(C)cc(C(F)(F)F)c2C#N)cc1`, the AC50 under setting [1] was 23.1 µM [falling, partial curve]. For the compound `Oc1ccc(-c2onc3ccc(Cl)cc23)cc1`, the cell number change is -11.1%. Moreover, under setting [1], the AC50 is 0.00461 µM [rising, full curve, poor fit]. Regarding `O=C(O)c1cccc(NCc2ccncc2)c1`, the cell number change is -82.2%. Under setting [2], the AC50 was 29.1 µM [falling, single point]. For the same compound, under setting [1], the AC50 is 29.1 µM [falling, single point]. For the compound `Cc1cc(C)c(S(=O)(=O)NCc2cccnc2)c(C)c1`, the cell number change is -21.6%.

Turning to `CC(=O)N(c1cccc(C(F)(F)F)c1)c1nc(/C=C/C(=O)O)cs1`, the cell number change was -2.57%. The AC50 under setting [1] was 3.66 µM [falling, single point]. Consider `Cc1nnnn1/C(=C\c1ccccc1)C(=O)OCC(=O)Nc1ccc(Cl)cc1F`, for which the cell number change was -59.6%. Under setting [2], the AC50 was 9.2 µM [falling, partial curve]. `CCOc1ccccc1NC(=O)Cn1c(=O)n(CCC(=O)NC2CCCC2)c(=O)c2ccccc21`: the AC50 under setting [1] was 0.058 µM [rising, full curve, poor fit]. With `CC(C(=O)Nc1ccc2c(c1)OCCO2)N1CCN(C(=O)c2ccco2)CC1` (configuration not stated), the cell number change is -6.08%. Besides, the AC50 under setting [1] is 32.6 µM [rising, single point]. For the compound `CCSc1nnc2c(n1)[nH]c1c(C)cccc12`, the AC50 under setting [1] was 16.4 µM [falling, partial curve, poor fit].

For the compound `CCOC(=O)c1ccc[n+](CC(=O)Nc2cc(C(F)(F)F)ccc2Cl)c1`, the cell number change is -99.2%. For the same compound, under setting [2], the AC50 was 18.4 µM [falling, single point]. The AC50 under setting [1] was 23.1 µM [falling, partial curve]. In the case of `COc1ccc(-n2nc(C(=O)NCC(=O)NCCCN3CCOCC3)c3ccccc3c2=O)cc1Cl`, the cell number change came to 35.9%. Under setting [2], the AC50 was 0.259 µM [rising, full curve, poor fit]. Consider `Cc1ccc(C2C(=O)N(C3CCCC3)CC(=O)N2C2CCCCC2)cc1` (configuration not stated), for which the cell number change is -12.9%. Further, the AC50 under setting [1] is 18.4 µM [rising, single point]. `Cc1ccc(S(=O)(=O)N2CCN(C(=O)COC(=O)CCOc3ccc(C(C)(C)C)cc3)CC2)cc1`: the cell number change turned out to be 56.6%. In addition, the AC50 under setting [2] was 32.6 µM [rising, partial curve, poor fit]. On to `CC(C)(C)SCCNC(=O)Nc1ccccc1`, for which the cell number change was 63.2%. Besides, the AC50 under setting [2] is 16.4 µM [rising, single point]. Also, the AC50 under setting [1] was 0.731 µM [falling, single point]. As to `Cc1cccc(OCC(=O)NCC(=O)N=Nc2c(O)[nH]c3ccc([N+](=O)[O-])cc23)c1`, the cell number change was 0.901%. Moreover, the AC50 under setting [1] is 29.1 µM [falling, single point]. `O=C(O)c1cccnc1SCc1cn2cc(Cl)ccc2n1`: the cell number change is -16.6%. Further, the AC50 under setting [1] is 1.3 µM [falling, full curve]. Take `C=CCn1c(SCC(=O)NCC2CCCO2)nc2scc(-c3ccco3)c2c1=O` (configuration not stated): the AC50 under setting [2] was 4.61 µM [rising, partial curve, poor fit].

Turning to `CCOc1cc(NC(=S)Nc2cccc(OC)c2)c(OCC)cc1NC(=O)c1ccc(C)cc1`, the cell number change stood at 10.6%. For the same compound, under setting [1], the AC50 is 18.4 µM [rising, single point]. Turning to `CC(C)CN1C(=O)/C(=C(/C#N)C(=O)NC2CCCCC2)c2ccccc21`, the cell number change was determined as 1.34%. Under setting [1], the AC50 was 3.26 µM [rising, single point]. For `O=C(c1ccco1)N1CCN(C(=O)c2cc3cc([N+](=O)[O-])ccc3oc2=O)CC1`, the cell number change was 65.5%. `Cc1ccc(S(=O)(=O)NC2(C(F)(F)F)C(=O)Nc3c2c(=O)[nH]c(=O)n3-c2ccccc2)cc1` (configuration not stated): the cell number change came to 7.42%. Further, the AC50 under setting [1] was 18.4 µM [rising, single point]. As to `NS(=O)(=O)c1ccc(N/N=C/C=C/c2ccccc2[N+](=O)[O-])cc1`, the cell number change was determined as 11.3%. With `COc1ccc(/C=N/NC(=O)c2ccc(N(C)S(=O)(=O)c3ccccc3)cc2)cc1OC`, the cell number change worked out at 18.6%. For the same compound, the AC50 under setting [1] is 1.64 µM [rising, partial curve].

Take `COc1ccc(CC(=O)NNC(=O)c2cccs2)cc1OC`: the cell number change is -48%. For the same compound, the AC50 under setting [2] was 29.1 µM [falling, single point]. For the same compound, the AC50 under setting [1] was 29.1 µM [falling, single point]. For the compound `Cc1nc(CNS(=O)(=O)c2ccc3c(c2)OCCO3)cs1`, the cell number change is -45.7%. The AC50 under setting [2] was 0.58 µM [falling, full curve]. The AC50 under setting [1] is 0.517 µM [falling, full curve]. Turning to `CN(C)c1ccc(/C=C2\NC(=S)N(Cc3ccccc3)C2=O)cc1`, the cell number change is -11.7%. Further, under setting [1], the AC50 is 29.1 µM [falling, single point].

For the compound `Cc1ccc(NC(=O)C(C)OC(=O)Cc2c[nH]c3ccccc23)cc1` (configuration not stated), the cell number change was 41.7%. The half-maximal activity concentration (AC50) under setting [2] was 2.91 µM [rising, full curve]. Further, the AC50 under setting [1] was 3.66 µM [rising, full curve]. Take `CCOC(=O)c1ccc(NC(=O)N2C3CCCC2CC(NC(C)=O)C3)cc1` (configuration not stated): the cell number change was determined as 2.84%. The AC50 under setting [1] was 0.517 µM [rising, full curve, poor fit].

For the compound `NC1=NC(=O)CC(C(=O)NCCc2ccccc2)S1` (configuration not stated), the cell number change was 14.5%. `CCN(CC(=O)Nc1c(F)cccc1F)C(=O)c1ccc(C(F)(F)F)cc1`: the cell number change was determined as 36.9%. The AC50 under setting [2] was 8.2 µM [rising, partial curve, poor fit]. On to `O=C1/C(=C/c2cccc(Br)c2)SC(=S)N1/N=C/c1cc([N+](=O)[O-])ccc1O`, for which the cell number change is -4.47%. Consider `Cc1ccc(-c2nn(C)c(=O)c3ccccc23)cc1CNC(=O)c1ccco1`, for which the cell number change was -20.7%. Besides, the AC50 under setting [1] is 25.9 µM [rising, single point]. `Cc1cccc(NC(=O)c2ccc(S(=O)(=O)NCc3ccco3)cc2)n1`: the cell number change is -13.9%. Moreover, the AC50 under setting [1] was 1.46 µM [rising, partial curve].

`CCOC(=O)C1CCN(C(=O)COc2ccc(S(=O)(=O)N3CCOCC3)cc2)CC1`: the cell number change was -12%. As for `C=C(C)COc1ccc(-c2nc(N)ncc2-c2ccc(OC)c(OC)c2)c(O)c1`, the cell number change was -4.26%. Under setting [1], the half-maximal activity concentration (AC50) was 0.13 µM [rising, full curve, poor fit]. Regarding `NC(=O)COC(=O)c1ccc(Oc2ccccc2)cc1`, the cell number change is 17.3%. Same read-out and setting: the figure for `COC(=O)c1ccccc1NC(=O)NCc1cccnc1` is 8.11%. Consider `CC(=O)NC(NC(=S)N1CCCCCC1)C(Cl)(Cl)Cl` (configuration not stated), for which the cell number change was -32.1%. On to `N/C(=N\N=C\c1ccc2c(c1)OCO2)c1nonc1N`, for which the cell number change is 36%. In addition, under setting [2], the AC50 was 16.4 µM [rising, single point]. Moreover, the AC50 under setting [1] is 2.59 µM [rising, partial curve]. For the compound `O=C1C2CCCCC2C(=O)N1c1ccc(NC2CCCCC2)c([N+](=O)[O-])c1` (configuration not stated), the cell number change is -11.1%. Besides, the AC50 under setting [1] is 18.4 µM [falling, single point].

With `CCOC(=O)[C@H]1[C@H]2COc3ccccc3[C@@H]2N2C(=O)c3cc(Br)ccc3NC(=O)[C@@]12C`, the cell number change was found to be 18.9%. Also, under setting [1], the AC50 was 0.00411 µM [rising, full curve, poor fit].
